Test results published in publication PMC7819943, “Rice protein-binding microarrays: a tool to detect cis-acting elements near promoter regions in rice”.
The other results are listed elsewhere or left out.

By UniProt entry, the sequences of proteins in these tests, tags left out.
UniProt Q0JBA9, entry or part of it: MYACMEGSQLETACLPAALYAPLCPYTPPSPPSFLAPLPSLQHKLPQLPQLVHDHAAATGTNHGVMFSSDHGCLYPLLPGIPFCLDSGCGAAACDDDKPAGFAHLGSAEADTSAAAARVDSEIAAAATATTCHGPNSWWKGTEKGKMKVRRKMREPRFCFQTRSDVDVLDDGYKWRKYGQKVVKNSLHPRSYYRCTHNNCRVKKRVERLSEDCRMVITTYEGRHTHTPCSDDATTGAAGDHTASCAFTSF

What follows are sequences tested against OsWRKY34 (Oryza sativa, UniProt Q0JBA9 1-250) (assay: protein-binding microarray (RPBM); PBS, 2% BSA, 51.3 ng/ul salmon testes DNA, 50 uM zinc acetate, 200 nM TF, 25 C, 1 h; high values mean tight binding). Settings: protein: recombinant; tags: N-terminal polyhistidine and DsRed monomer fusion (pET32a); label: CyDye5-dUTP incorporated in the synthesized complementary strand; 3' TTTTT single-stranded linker to array surface; dsDNA, one strand shown.
How it was run: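 Binding signal is reported as fluorescence intensity per feature (arbitrary units) from an Axon 4000B scanner. Incubation used 200 nM of each Ni–NTA-purified, N-terminally polyhistidine- and DsRed-fused transcription factor from E. coli BL21-CodonPlus on a double-stranded custom Agilent array for 1 h at 25 °C, with 50 µM zinc acetate in the buffer, followed by washing.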

| Sequence | binding signal |
| --- | --- |
| GAGCGCCTCATCATCCGCCTGCACGCCGCCCTCGGCAACACGGAGTCACCTAGTGCAG | 10200 fluorescence intensity (a.u.) |
| CTTCATACAGAGAAACAGGAATAGAGGCGAGGGGTGGGTTCGGAGTCACCTAGTGCAG | 8300 fluorescence intensity (a.u.) |
| AATTTTAGGCCACATTGCATTATGTATAGTATGTCTTCTACGGAGTCACCTAGTGCAG | 10100 fluorescence intensity (a.u.) |
| TTTTTCTTTTTATAAAATCATTTTAACTTTGTTTATTTCTCGGAGTCACCTAGTGCAG | 8070 fluorescence intensity (a.u.) |
| TGTCGTCGACGACGTCGTTGATCCTGCGTCTTGCATTCTTCGGAGTCACCTAGTGCAG | 9550 fluorescence intensity (a.u.) |
| TTGACTTTTTAGCACATGTTTGACCGTTCGTCTTATTCAACGGAGTCACCTAGTGCAG | 8480 fluorescence intensity (a.u.) |
| TAAAACTAATACTACTTTTGATCATGCTCGGTCCTGAATTCGGAGTCACCTAGTGCAG | 8890 fluorescence intensity (a.u.) |
| TAATATTATTGGTTCTCATCTTGACTTTTATCACCAGCTTCGGAGTCACCTAGTGCAG | 12000 fluorescence intensity (a.u.) |
| ACCTGAGCCTACTATTCAAAGCACATCCATCCTTGGCAATCGGAGTCACCTAGTGCAG | 9540 fluorescence intensity (a.u.) |
| ATTATCTTATGTTTTTGTACTTCTAGAACCCATACTACTTCGGAGTCACCTAGTGCAG | 11000 fluorescence intensity (a.u.) |
| CGTTTGACCATTTTTCTTATTCAAAAATTTTGTACAAATACGGAGTCACCTAGTGCAG | 10300 fluorescence intensity (a.u.) |
| AATCTCACGCACTGTCTCTCGTTCGCGCAAAGCACGCTGCCGGAGTCACCTAGTGCAG | 8340 fluorescence intensity (a.u.) |
| AATCTCAGCTCCACTTGTCTCGTTGCCGACGCGTGTGTTTCGGAGTCACCTAGTGCAG | 12300 fluorescence intensity (a.u.) |
| ACCGTTCCAATCGTACCCTGTACCTGCCCAACTTTAAAAACGGAGTCACCTAGTGCAG | 8660 fluorescence intensity (a.u.) |
| TGCATGGAAATCGCCCGAGGGCCTGTCAATTTCTCACTCTCGGAGTCACCTAGTGCAG | 8960 fluorescence intensity (a.u.) |
| CATCCTTGGCTCTGATAACTCCCAGGTTCTCATCTCTCACCGGAGTCACCTAGTGCAG | 10900 fluorescence intensity (a.u.) |
| TGGCCCACTGTCAGCTATCTATTTCTCACCATCCTCAGTTCGGAGTCACCTAGTGCAG | 11300 fluorescence intensity (a.u.) |
| TACAGTTTTCCCACAACCACTTTTTACCATCTGAATGATACGGAGTCACCTAGTGCAG | 8170 fluorescence intensity (a.u.) |
| TGTGATTTGGTACATGCATGTTCTACTAAGTCTGTTTCTACGGAGTCACCTAGTGCAG | 8780 fluorescence intensity (a.u.) |
| GATGGGGTGGCTTAGTGACGAAAAAAAGGTGTTCGTTATTCGGAGTCACCTAGTGCAG | 9090 fluorescence intensity (a.u.) |
| ACCCACCCACCTGGCACCAATCTCGATGCAAATCCAACGGCGGAGTCACCTAGTGCAG | 9630 fluorescence intensity (a.u.) |

An excerpt of these results, tab-delimited:
Sequence	binding signal
CGTTTGACCATTTTTCTTATTCAAAAATTTTGTACAAATACGGAGTCACCTAGTGCAG	10300 fluorescence intensity (a.u.)
AATCTCACGCACTGTCTCTCGTTCGCGCAAAGCACGCTGCCGGAGTCACCTAGTGCAG	8340 fluorescence intensity (a.u.)
AATCTCAGCTCCACTTGTCTCGTTGCCGACGCGTGTGTTTCGGAGTCACCTAGTGCAG	12300 fluorescence intensity (a.u.)
ACCGTTCCAATCGTACCCTGTACCTGCCCAACTTTAAAAACGGAGTCACCTAGTGCAG	8660 fluorescence intensity (a.u.)
TGCATGGAAATCGCCCGAGGGCCTGTCAATTTCTCACTCTCGGAGTCACCTAGTGCAG	8960 fluorescence intensity (a.u.)
CATCCTTGGCTCTGATAACTCCCAGGTTCTCATCTCTCACCGGAGTCACCTAGTGCAG	10900 fluorescence intensity (a.u.)
TGGCCCACTGTCAGCTATCTATTTCTCACCATCCTCAGTTCGGAGTCACCTAGTGCAG	11300 fluorescence intensity (a.u.)
TACAGTTTTCCCACAACCACTTTTTACCATCTGAATGATACGGAGTCACCTAGTGCAG	8170 fluorescence intensity (a.u.)

More records follow:

| Sequence | binding signal |
| --- | --- |
| GGCCTGCTGCTGCTTTGGGTGGGCTGCCTCGTCACTAATCCGGAGTCACCTAGTGCAG | 12300 fluorescence intensity (a.u.) |
| CAATGGGGTTCCTATATTTTGTTTCCTTCCTTCATGCCGACGGAGTCACCTAGTGCAG | 8100 fluorescence intensity (a.u.) |
| GATCTCCCCAGCGCCACCTGCTCTCTTTGACTTGCAAACACGGAGTCACCTAGTGCAG | 8390 fluorescence intensity (a.u.) |
| CATCCTTGCACTGGCCATCCCTTCCCCTACAGCTCTACTTCGGAGTCACCTAGTGCAG | 8360 fluorescence intensity (a.u.) |
| TGGTGGGTGCCTTGACATCATGTGACTTTGATTGTTCTCCCGGAGTCACCTAGTGCAG | 8430 fluorescence intensity (a.u.) |
| CGCCACGTGTCCTCATCTCGACGGTCGCACGTTCCCACCCCGGAGTCACCTAGTGCAG | 8960 fluorescence intensity (a.u.) |
| AAATCCCCTTGTTACCGCGCGTTGTTTGGTTGTACCGCGCCGGAGTCACCTAGTGCAG | 16600 fluorescence intensity (a.u.) |
| GACATCCTGCACTTCATCTATCTTCTAATCTGGACCATTTCGGAGTCACCTAGTGCAG | 8450 fluorescence intensity (a.u.) |
| TCGAAATATTTGACACCGTTGACTTTTTAGCACATGTTTGCGGAGTCACCTAGTGCAG | 35300 fluorescence intensity (a.u.) |
| CATGCGGGTCCCACACATGTTTTTTTTATTTTTTATATTTCGGAGTCACCTAGTGCAG | 8300 fluorescence intensity (a.u.) |
| ATCTGCGTCTCCGCATCATCCAGCGCCTGCGTCTCTCCGTCGGAGTCACCTAGTGCAG | 8900 fluorescence intensity (a.u.) |
| TATATTAACAAGTAATTTCTGTTTTGCATTCTTTTGTTCACGGAGTCACCTAGTGCAG | 8680 fluorescence intensity (a.u.) |
| AATAACTAATTACATGGATTGCGACTACTTTGCGAGACGACGGAGTCACCTAGTGCAG | 8290 fluorescence intensity (a.u.) |
| CGCTACTCCTATCCTATCACTGCACGCGTGGGCCAGCCGCCGGAGTCACCTAGTGCAG | 8700 fluorescence intensity (a.u.) |
| CAACGTTTTTATATGGATTTGTTTGGCCAATTGTCACCACCGGAGTCACCTAGTGCAG | 9240 fluorescence intensity (a.u.) |
| CTTCCATGTGCTTCGCTTGACATTTTTTTTTCTTCTTCTTCGGAGTCACCTAGTGCAG | 8210 fluorescence intensity (a.u.) |
| TTAGCAAGATATGTAACCTTTATTTGACTAGTCATGCAATCGGAGTCACCTAGTGCAG | 12300 fluorescence intensity (a.u.) |
| ACTGCTAGCTGGTTAATACATTTTGCATGTTCTATTGCATCGGAGTCACCTAGTGCAG | 11000 fluorescence intensity (a.u.) |
| CCGCCGCCGCCGCCGCCTTCCGCCGCCTCGAACCGGACCACGGAGTCACCTAGTGCAG | 9400 fluorescence intensity (a.u.) |
| TAAATTTTACATGTTGATGATTTGTTTTTACTTTTTTTCACGGAGTCACCTAGTGCAG | 9570 fluorescence intensity (a.u.) |
| ATTATTGTCGTCCTTGTCACCAGTGTTGTCGCCGCTCATACGGAGTCACCTAGTGCAG | 12400 fluorescence intensity (a.u.) |
